The text below walks through data of the supplement of paper PMC12067093, “Discovery and optimisation of a covalent ligand for TRIM25 and its application to targeted protein ubiquitination” (Chemical Science, 2025).

The chains behind the UniProt entries cited, without tags or fusion partners. Where a name states a change or a piece, a line headed by the entry shows the natural chain unless it says otherwise.
UniProt O43463: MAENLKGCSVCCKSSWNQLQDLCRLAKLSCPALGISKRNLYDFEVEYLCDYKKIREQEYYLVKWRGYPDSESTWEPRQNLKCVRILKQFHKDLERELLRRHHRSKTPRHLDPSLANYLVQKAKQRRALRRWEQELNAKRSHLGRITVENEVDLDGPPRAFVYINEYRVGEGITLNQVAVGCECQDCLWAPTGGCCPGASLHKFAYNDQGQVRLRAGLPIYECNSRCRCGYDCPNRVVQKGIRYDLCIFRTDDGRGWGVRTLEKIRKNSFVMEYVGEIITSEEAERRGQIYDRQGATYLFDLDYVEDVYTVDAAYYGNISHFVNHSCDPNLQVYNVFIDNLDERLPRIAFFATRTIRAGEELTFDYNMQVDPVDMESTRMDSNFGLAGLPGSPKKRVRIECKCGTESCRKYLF
UniProt Q13033: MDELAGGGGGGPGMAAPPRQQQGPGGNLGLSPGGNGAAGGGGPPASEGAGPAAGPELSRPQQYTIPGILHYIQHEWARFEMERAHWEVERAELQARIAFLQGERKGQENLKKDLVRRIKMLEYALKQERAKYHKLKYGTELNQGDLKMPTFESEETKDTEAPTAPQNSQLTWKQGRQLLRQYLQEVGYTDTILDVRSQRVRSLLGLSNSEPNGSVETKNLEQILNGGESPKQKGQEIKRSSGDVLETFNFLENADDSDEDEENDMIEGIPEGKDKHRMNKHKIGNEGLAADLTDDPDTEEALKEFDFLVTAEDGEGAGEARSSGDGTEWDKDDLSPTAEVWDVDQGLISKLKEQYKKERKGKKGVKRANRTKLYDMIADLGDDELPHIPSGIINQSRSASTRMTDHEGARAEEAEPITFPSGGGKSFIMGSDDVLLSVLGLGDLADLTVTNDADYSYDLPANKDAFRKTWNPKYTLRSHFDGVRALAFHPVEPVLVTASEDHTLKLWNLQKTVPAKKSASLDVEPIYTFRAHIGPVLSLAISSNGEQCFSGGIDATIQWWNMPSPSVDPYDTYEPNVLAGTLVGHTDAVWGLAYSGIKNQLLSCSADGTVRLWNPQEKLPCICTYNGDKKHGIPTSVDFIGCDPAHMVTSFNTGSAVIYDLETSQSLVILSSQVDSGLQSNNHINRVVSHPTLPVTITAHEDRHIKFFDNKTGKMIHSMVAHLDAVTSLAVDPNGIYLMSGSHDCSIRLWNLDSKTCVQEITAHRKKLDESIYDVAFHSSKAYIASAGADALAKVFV
UniProt O00506, whole entry, looked up: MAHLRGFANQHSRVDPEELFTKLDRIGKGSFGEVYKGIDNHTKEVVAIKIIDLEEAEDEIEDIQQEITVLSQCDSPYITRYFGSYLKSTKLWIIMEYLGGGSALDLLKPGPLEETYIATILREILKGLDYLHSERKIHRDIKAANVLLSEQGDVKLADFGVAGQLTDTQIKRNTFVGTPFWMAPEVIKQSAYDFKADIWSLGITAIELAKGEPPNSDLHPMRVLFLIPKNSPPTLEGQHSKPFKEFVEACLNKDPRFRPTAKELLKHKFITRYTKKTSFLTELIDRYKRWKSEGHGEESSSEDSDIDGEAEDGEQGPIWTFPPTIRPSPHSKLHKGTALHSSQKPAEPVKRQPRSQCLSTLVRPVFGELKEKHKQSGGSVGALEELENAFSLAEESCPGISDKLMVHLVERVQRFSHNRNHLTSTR
UniProt Q92797: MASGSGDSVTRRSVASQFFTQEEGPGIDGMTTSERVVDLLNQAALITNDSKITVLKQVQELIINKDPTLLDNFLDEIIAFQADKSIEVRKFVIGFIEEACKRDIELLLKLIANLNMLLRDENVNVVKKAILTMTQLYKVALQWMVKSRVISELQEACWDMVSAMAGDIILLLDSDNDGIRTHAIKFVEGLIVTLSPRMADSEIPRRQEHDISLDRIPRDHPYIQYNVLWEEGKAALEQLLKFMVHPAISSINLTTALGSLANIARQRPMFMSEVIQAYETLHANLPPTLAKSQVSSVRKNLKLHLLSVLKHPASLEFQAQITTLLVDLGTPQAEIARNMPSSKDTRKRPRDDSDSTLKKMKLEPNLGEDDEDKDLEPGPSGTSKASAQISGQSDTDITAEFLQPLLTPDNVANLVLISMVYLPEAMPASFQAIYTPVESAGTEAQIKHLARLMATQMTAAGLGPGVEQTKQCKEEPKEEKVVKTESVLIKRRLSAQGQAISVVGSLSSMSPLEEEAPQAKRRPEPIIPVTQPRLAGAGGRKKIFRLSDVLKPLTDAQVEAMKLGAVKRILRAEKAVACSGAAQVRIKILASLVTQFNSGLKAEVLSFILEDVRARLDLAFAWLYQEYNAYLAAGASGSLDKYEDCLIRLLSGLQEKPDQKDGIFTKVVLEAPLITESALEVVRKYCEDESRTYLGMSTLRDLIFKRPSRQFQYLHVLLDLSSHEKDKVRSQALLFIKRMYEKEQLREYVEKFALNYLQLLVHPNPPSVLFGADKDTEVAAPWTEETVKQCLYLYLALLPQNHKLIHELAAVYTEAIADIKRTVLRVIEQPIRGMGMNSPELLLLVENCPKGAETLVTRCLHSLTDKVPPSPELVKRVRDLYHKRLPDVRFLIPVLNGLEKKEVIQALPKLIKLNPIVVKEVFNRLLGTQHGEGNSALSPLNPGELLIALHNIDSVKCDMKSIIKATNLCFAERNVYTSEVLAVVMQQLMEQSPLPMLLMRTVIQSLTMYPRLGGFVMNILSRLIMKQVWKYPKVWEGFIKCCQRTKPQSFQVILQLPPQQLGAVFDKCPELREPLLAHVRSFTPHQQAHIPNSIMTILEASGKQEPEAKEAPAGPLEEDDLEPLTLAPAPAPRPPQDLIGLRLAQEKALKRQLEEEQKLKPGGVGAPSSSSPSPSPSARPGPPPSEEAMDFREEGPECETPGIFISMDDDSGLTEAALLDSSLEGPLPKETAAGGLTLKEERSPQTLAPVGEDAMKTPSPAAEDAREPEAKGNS
UniProt Q5VSL9: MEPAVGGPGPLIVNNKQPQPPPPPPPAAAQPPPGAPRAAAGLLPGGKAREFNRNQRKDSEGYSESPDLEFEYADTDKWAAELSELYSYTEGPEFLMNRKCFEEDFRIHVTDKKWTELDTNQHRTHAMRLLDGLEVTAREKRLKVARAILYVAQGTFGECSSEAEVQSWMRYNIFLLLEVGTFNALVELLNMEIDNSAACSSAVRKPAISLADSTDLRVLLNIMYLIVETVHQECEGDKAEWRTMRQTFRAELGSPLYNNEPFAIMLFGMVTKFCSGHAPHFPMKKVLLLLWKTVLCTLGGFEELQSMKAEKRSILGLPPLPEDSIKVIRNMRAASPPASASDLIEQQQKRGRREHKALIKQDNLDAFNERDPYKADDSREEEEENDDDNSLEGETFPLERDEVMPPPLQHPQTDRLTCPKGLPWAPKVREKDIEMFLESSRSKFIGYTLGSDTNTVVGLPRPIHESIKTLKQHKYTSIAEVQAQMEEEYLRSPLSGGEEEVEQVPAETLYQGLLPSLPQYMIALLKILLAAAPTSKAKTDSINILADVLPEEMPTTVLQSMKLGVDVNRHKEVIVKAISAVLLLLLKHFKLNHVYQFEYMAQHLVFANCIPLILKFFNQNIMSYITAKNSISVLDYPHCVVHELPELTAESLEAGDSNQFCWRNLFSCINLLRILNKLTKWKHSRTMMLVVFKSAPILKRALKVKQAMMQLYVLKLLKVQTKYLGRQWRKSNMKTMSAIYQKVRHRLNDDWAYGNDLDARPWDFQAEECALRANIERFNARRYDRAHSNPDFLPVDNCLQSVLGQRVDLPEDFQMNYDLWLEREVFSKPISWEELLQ
UniProt Q15527: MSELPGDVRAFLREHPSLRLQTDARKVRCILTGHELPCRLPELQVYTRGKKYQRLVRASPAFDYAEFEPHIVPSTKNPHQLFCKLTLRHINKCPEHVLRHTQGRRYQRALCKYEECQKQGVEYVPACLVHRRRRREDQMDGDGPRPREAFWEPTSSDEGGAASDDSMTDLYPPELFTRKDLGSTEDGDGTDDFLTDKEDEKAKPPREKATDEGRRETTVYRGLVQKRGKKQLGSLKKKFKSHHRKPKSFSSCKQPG
UniProt Q9Y6E0: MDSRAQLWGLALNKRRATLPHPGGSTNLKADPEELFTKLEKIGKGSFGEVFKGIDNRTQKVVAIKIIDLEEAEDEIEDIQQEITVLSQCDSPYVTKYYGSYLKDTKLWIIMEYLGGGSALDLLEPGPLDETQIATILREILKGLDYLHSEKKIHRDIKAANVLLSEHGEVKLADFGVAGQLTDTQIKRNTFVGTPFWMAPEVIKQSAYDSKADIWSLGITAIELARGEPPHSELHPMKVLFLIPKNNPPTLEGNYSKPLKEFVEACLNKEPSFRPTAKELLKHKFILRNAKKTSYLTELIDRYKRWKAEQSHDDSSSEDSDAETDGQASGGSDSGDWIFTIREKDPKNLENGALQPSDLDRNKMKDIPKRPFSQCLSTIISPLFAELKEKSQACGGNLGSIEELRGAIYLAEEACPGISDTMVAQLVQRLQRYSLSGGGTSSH
UniProt Q8N1F8: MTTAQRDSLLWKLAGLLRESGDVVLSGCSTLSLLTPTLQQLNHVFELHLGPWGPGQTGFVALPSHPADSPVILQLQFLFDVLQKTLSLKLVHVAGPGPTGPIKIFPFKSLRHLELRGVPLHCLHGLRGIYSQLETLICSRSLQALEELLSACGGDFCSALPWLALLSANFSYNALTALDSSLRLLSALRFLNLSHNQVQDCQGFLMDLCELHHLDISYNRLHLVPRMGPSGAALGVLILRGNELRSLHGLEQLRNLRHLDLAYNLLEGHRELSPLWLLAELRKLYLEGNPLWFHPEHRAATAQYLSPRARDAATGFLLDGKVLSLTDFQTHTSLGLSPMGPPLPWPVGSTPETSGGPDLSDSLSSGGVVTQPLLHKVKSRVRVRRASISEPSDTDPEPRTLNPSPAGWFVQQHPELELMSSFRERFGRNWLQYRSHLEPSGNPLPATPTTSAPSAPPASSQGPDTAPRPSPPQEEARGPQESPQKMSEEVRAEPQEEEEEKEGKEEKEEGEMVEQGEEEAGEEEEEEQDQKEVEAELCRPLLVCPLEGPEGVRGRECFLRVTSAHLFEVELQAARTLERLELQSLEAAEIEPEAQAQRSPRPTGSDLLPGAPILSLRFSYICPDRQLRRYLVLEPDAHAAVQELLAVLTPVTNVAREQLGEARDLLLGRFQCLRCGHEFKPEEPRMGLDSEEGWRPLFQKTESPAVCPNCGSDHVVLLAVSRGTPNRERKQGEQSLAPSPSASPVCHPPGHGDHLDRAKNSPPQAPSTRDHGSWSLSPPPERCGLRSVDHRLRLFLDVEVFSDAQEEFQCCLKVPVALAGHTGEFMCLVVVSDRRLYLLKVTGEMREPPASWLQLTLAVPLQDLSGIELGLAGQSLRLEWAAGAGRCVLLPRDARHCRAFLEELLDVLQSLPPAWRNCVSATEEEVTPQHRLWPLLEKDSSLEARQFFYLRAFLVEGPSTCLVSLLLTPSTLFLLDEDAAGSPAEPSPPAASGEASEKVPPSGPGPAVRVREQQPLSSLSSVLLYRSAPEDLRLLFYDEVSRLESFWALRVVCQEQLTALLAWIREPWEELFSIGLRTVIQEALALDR
UniProt Q9UH99: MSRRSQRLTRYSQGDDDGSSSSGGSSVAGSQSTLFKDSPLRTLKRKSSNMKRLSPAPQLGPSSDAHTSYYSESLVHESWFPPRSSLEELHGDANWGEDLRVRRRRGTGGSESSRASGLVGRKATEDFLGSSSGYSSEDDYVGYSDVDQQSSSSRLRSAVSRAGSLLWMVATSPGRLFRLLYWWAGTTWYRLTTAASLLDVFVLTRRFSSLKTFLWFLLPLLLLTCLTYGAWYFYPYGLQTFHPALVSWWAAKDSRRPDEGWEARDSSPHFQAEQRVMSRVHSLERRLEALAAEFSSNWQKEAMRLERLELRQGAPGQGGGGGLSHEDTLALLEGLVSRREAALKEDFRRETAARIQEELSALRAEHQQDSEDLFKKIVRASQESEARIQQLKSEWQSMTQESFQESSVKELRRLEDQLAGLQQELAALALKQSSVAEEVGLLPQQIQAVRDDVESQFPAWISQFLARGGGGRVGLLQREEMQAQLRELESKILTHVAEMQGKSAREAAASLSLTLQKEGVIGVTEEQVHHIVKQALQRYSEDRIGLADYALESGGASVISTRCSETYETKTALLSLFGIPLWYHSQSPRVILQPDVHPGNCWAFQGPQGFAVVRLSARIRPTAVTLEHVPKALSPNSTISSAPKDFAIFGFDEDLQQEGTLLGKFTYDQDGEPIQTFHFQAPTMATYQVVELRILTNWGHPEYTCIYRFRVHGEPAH
UniProt O14662: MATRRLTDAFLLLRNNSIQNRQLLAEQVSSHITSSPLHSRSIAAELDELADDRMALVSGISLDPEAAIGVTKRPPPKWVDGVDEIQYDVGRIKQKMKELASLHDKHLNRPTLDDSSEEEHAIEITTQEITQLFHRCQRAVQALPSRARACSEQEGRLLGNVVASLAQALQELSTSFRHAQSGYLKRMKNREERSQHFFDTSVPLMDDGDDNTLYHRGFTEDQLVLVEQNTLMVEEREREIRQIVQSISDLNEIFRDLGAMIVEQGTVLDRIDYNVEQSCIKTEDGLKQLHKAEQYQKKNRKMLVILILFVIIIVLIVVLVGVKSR

The list shows a part of the results.
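Further: competitive profiling in live THP-1 cells: cysteine peptides tagged with an iodoacetamide desthiobiotin (IA-DTB) probe, intensity after compound treatment relative to DMSO-treated cells.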

Compound in the assay: Cc1cc(ccc1-c1ccccc1)C(=O)N1CCCN(CC1)C(=O)CCl [compound 10]
The assay is described as follows: probe-labelled cysteine peptide fold change vs DMSO (competition) (log2 fold change); higher = less target engagement (more negative = stronger competition). The conditions noted are these: 10 µM; THP-1; incubation time: 4 h.
Take “SUV39H1_O43463_30_LSCPALGISK (UniProt O43463)”: the “probe-labelled cysteine peptide fold change” value is -0.0675. With “STK19_P49842_354_LGLTYHVHDLIGAQLVDCISTTSGTLLR (UniProt P49842)”, the “probe-labelled cysteine peptide fold change” value is 0.111.

As for “STAM_Q92783_76_DPHVAMQALTLLGACVSNCGK (UniProt Q92783)”, the “probe-labelled cysteine peptide fold change” value came to 0.0253.

“STRN3_Q13033_604_NQLLSCSADGTVR (UniProt Q13033)”: the “probe-labelled cysteine peptide fold change” value amounted to 0.13. As for “STYX_Q8WUJ0_62_HGITHIICIR (UniProt Q8WUJ0)”, the figure is 0.0681. For “STK25_O00506_357_SQCLSTLVRPVFGELK (UniProt O00506)”, the “probe-labelled cysteine peptide fold change” value turned out to be 0.00916. Turning to “SYMPK_Q92797_686_KYCEDESR (UniProt Q92797)”, the “probe-labelled cysteine peptide fold change” value was determined as 0.217. Turning to “STRIP1_Q5VSL9_769_HRLNDDWAYGNDLDARPWDFQAEECALR (UniProt Q5VSL9)”, the “probe-labelled cysteine peptide fold change” value was -0.318. As for “SWAP70_Q9UH65_261_KGDILLDENCCVESLPDK (UniProt Q9UH65)”, the figure is -0.188.

As to “STIP1_P31948_471_CMMAQYNR (UniProt P31948)”, the “probe-labelled cysteine peptide fold change” value was found to be 0.271. Take “SURF2_Q15527_116_YEECQK (UniProt Q15527)”: the “probe-labelled cysteine peptide fold change” value stood at 0.109. As for “STK24_Q9Y6E0_375_RPFSQCLSTIISPLFAELK (UniProt Q9Y6E0)”, the “probe-labelled cysteine peptide fold change” value was -0.203. Turning to “STOML2_Q9UJZ1_167_ESLNASIVDAINQAADCWGIR (UniProt Q9UJZ1)”, the “probe-labelled cysteine peptide fold change” value was 0.209. In the case of “STK11IP_Q8N1F8_710_TESPAVCPNCGSDHVVLLAVSR (UniProt Q8N1F8)”, the “probe-labelled cysteine peptide fold change” value turned out to be 0.128. Take “SUN2_Q9UH99_601_VILQPDVHPGNCWAFQGPQGFAVVR (UniProt Q9UH99)”: the “probe-labelled cysteine peptide fold change” value came to 0.0264.

“STX16_O14662_150_ACSEQEGR (UniProt O14662)”: the “probe-labelled cysteine peptide fold change” value is -0.0416.
